Results are given in words; binding and its absence hold for the method and conditions named. Binding seen in cells or lysates may run through a third protein. These calls come from enrichment with a bait or labelling near it, and not all partners need be listed. For some assays here: Sequences can lack the tags named with a protein.

Sequences of proteins named here, by UniProt entry; tags and fusion partners are left off. Residues count along the entry.
UniProt Q07021, residues 74-282: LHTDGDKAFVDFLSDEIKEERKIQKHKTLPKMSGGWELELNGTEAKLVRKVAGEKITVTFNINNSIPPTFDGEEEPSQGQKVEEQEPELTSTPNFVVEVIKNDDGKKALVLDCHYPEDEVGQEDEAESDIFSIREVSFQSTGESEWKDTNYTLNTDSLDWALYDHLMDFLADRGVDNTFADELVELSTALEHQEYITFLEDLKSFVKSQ

Assay [1] deals with T1, endogenous MTALTND4 (human (endogenous in HeLa)).
T1 sequence: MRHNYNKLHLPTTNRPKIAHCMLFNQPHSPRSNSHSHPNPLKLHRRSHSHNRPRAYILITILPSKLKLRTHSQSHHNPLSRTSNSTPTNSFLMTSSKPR
The assay is described as follows: affinity purification with mass spectrometry; immunoprecipitation from HeLa cell lysates (10 mM HEPES, 150 mM NaCl, Triton X-100) with rabbit anti-MTALTND4 and protein A agarose, 4 °C overnight; pre-immune serum as control; mass spectrometry.

Assay [2] deals with T2, GST-MTALTND4 (human).
T2 sequence: T1 sequence
The assay is described as follows: affinity purification with mass spectrometry; GST-MTALTND4 pre-coupled to glutathione sepharose beads (10 µg) with 1 ml pre-cleared HeLa or HEK-293T lysate, 4 °C overnight, 6 washes; mass spectrometry; only the target purified.

Consider “complement component 1q subcomponent binding protein (C1qbp) (from UniProt Q07021 74-282)”, for which the binding entry in assay [1] and in assay [2] was “binds” in each case.

Source of the values: paper PMC10193809, “A small protein coded within the mitochondrial canonical gene nd4 regulates mitochondrial bioenergetics” (BMC Biology, 2023).
